Test results taken from the supplement of paper PMC12067093, “Discovery and optimisation of a covalent ligand for TRIM25 and its application to targeted protein ubiquitination” (Chemical Science, 2025).
This is one part of the list.

Amino acid sequences for entries named in this document (tags omitted). A change or cut given only in a name is not applied to a line headed by its entry.
UniProt Q9UIF9: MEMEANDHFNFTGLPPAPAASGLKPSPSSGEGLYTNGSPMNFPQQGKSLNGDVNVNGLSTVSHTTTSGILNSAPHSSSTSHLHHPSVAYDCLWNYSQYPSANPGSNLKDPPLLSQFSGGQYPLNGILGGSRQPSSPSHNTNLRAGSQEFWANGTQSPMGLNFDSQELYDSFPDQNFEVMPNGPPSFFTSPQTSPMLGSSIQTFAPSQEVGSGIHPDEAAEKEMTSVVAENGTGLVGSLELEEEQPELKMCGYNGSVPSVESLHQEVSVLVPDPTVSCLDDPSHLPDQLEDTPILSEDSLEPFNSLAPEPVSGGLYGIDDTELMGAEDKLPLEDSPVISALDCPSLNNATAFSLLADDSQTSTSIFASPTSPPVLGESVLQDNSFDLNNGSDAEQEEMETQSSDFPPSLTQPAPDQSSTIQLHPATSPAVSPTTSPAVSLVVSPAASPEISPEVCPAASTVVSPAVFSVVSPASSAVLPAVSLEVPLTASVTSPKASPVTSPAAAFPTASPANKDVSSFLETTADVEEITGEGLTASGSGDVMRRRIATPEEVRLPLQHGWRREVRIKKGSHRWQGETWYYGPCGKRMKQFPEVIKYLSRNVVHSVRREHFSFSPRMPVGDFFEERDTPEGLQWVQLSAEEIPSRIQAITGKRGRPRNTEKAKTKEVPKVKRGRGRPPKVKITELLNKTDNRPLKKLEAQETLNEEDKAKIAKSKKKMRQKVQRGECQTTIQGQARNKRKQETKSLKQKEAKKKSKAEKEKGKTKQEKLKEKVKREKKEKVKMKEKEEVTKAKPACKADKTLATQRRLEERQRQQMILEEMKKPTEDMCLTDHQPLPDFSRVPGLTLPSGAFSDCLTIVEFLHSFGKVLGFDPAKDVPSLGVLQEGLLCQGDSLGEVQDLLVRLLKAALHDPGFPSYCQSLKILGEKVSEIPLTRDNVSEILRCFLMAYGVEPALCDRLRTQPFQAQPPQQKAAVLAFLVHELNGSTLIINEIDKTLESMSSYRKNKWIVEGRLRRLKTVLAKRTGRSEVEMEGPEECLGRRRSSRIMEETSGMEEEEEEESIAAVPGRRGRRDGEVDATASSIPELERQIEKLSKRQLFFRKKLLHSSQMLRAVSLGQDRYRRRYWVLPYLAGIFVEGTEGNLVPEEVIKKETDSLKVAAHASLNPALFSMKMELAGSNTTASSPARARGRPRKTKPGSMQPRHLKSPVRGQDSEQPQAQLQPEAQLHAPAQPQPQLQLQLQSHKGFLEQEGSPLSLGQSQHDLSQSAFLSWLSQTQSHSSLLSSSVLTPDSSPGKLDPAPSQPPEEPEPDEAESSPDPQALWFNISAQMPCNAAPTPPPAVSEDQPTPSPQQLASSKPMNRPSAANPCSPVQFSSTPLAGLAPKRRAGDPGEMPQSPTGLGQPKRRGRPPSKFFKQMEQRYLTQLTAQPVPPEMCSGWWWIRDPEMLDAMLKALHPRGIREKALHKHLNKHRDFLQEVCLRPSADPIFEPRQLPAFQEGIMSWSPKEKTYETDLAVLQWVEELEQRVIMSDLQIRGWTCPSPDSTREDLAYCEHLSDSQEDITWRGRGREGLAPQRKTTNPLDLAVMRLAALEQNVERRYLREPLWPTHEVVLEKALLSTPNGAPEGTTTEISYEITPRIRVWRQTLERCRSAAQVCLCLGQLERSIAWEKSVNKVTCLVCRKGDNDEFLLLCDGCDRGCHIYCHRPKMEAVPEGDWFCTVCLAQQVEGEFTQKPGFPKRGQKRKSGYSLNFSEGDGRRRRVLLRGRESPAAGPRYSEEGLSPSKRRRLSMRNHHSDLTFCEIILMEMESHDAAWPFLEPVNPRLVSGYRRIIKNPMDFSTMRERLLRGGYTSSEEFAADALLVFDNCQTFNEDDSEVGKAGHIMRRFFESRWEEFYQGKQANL
UniProt P54132: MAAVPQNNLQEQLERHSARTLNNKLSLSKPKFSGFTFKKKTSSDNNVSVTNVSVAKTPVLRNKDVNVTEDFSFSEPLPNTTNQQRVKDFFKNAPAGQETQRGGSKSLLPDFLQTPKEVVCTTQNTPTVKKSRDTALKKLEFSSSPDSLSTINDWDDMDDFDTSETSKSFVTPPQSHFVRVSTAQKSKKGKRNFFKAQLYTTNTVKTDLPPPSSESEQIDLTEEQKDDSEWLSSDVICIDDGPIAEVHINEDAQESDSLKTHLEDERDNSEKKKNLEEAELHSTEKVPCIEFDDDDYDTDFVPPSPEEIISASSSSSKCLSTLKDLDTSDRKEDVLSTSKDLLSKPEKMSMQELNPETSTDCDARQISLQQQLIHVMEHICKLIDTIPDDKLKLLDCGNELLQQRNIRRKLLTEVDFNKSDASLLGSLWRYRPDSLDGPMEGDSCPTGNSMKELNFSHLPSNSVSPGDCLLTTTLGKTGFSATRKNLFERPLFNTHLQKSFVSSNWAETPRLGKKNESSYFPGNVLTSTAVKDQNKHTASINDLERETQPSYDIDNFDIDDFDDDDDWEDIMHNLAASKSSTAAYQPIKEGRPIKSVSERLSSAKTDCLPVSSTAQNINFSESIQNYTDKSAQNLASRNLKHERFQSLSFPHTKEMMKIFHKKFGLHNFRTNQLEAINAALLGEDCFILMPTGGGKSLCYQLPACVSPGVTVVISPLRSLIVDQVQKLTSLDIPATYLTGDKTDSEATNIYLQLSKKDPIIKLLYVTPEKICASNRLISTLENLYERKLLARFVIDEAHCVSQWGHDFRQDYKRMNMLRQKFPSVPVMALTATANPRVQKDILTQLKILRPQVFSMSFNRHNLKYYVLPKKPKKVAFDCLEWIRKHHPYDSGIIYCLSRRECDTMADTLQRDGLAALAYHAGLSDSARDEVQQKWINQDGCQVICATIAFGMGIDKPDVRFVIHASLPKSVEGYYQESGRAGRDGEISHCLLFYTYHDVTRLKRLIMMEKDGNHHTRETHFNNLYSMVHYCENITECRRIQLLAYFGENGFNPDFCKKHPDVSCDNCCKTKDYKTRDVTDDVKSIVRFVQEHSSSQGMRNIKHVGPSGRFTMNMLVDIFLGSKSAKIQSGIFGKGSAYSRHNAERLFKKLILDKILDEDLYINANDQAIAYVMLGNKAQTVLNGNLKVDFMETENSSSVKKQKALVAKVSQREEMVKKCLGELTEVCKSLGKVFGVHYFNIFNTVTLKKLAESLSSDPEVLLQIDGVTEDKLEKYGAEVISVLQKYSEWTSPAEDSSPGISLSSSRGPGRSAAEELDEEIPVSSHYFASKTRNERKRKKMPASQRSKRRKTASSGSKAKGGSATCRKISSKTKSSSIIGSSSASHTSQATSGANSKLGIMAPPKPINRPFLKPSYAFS
UniProt Q96GS4: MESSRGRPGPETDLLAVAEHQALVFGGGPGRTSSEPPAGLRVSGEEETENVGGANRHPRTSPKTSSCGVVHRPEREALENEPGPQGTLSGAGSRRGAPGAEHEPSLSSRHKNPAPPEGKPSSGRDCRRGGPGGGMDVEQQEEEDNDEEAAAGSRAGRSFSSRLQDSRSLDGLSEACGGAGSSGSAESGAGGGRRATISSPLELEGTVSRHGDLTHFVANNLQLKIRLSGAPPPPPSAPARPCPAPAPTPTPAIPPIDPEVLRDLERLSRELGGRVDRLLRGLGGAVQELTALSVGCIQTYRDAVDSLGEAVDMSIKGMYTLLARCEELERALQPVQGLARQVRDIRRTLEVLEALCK
UniProt Q96L58: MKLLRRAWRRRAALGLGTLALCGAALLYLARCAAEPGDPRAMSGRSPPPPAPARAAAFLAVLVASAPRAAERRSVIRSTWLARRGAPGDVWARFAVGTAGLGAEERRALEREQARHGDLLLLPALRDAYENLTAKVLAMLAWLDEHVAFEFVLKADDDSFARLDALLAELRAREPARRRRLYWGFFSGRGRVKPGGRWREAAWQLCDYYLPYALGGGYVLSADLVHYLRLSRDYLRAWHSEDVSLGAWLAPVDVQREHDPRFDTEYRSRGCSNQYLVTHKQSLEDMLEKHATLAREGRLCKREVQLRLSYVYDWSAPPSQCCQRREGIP
UniProt P12694: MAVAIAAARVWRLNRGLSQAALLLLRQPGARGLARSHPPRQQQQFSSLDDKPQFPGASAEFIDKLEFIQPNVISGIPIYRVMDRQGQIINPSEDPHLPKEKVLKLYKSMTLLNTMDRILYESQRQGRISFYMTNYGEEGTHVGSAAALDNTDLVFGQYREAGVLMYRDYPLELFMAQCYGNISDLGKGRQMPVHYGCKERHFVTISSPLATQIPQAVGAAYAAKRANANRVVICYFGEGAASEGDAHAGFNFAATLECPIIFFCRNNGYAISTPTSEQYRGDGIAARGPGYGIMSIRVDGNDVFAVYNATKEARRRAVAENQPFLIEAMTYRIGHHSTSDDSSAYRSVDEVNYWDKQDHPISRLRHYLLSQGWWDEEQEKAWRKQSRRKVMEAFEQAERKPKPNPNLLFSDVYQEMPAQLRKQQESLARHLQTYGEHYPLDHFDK
UniProt O75934: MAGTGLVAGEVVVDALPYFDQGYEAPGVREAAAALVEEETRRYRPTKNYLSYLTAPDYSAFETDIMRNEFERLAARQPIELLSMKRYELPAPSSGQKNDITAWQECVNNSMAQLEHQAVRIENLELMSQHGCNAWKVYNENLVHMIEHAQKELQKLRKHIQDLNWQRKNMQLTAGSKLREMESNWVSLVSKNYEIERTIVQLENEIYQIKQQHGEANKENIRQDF
UniProt Q9NRL2: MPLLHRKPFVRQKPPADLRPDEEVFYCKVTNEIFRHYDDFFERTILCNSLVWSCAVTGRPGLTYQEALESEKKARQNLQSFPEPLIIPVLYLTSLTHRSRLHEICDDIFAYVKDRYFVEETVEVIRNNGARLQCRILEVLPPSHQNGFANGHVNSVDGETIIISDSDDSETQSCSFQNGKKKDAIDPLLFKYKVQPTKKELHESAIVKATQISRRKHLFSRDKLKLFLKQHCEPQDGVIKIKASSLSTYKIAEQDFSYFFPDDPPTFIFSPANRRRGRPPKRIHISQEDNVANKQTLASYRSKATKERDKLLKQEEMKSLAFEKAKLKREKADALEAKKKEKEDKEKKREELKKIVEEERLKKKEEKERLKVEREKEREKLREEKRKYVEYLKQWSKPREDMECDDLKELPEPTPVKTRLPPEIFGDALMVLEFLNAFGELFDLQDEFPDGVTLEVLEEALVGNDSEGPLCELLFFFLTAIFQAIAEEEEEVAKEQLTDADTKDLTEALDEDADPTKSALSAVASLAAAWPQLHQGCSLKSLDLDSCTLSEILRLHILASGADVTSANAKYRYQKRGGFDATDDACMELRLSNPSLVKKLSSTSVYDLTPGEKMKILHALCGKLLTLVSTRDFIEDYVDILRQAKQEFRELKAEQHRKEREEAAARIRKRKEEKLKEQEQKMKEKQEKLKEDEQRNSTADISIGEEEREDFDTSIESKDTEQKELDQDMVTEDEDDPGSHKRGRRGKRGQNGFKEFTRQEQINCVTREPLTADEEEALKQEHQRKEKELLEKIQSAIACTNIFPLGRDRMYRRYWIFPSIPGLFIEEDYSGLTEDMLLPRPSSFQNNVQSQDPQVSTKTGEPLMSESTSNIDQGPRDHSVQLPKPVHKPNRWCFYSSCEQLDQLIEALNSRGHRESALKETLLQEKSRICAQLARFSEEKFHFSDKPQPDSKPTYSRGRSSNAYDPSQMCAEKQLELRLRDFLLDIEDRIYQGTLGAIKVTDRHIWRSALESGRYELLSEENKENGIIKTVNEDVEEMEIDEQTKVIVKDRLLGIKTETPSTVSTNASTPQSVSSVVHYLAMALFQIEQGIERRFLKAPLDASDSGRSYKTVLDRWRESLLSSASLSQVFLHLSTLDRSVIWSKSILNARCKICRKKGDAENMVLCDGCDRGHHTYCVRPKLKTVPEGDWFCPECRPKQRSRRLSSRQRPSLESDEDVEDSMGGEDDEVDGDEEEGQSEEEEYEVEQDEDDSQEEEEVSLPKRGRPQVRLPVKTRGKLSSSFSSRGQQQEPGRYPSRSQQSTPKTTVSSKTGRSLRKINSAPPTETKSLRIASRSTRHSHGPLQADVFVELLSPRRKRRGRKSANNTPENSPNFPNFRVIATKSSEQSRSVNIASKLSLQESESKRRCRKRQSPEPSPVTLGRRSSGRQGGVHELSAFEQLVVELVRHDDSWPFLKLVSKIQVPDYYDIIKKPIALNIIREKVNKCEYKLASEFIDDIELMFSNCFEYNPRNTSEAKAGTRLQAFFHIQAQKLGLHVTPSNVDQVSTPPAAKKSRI

Compound: Cc1cc(ccc1-c1ccccc1)C(=O)N1CCCN(CC1)C(=O)CCl [compound 10]
Assay: probe-labelled cysteine peptide fold change vs DMSO (competition) (log2 fold change); higher = less target engagement (more negative = stronger competition)
Settings: THP-1, incubation time: 4 h
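Further: competitive profiling in live THP-1 cells: cysteine peptides tagged with an iodoacetamide desthiobiotin (IA-DTB) probe, intensity after compound treatment relative to DMSO-treated cells.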

Target | probe-labelled cysteine peptide fold change (10 µM) | probe-labelled cysteine peptide fold change (50 µM)
BPTF_Q12830_2697_MIVCNQVMK (UniProt Q12830) | 0.0771 | -0.18
BAZ2A_Q9UIF9_1697_KGDNDEFLLLCDGCDR (UniProt Q9UIF9) | 0.0661 | -0.35
BIRC6_Q9NR09_4183_KHAQCLLR (UniProt Q9NR09) | -0.0476 | -1.02
BLM_P54132_704_SLCYQLPACVSPGVTVVISPLR (UniProt P54132) | -0.311 | 0.68
BORCS6_Q96GS4_67_TSSCGVVHRPER (UniProt Q96GS4) | 0.0369 | -0.256
BAZ2A_Q9UIF9_583_WQGETWYYGPCGK (UniProt Q9UIF9) | 0.0264 | 0.0666
B3GALT6_Q96L58_271_GCSNQYLVTHK (UniProt Q96L58) | -0.144 | 0.0773
BANK1_Q8NDB2_349_ELPTLLHCAAK (UniProt Q8NDB2) | 0.0399 | -0.0376
B4GALT7_Q9UBV7_75_ACPPEPPPEHWEEDASWGPHR (UniProt Q9UBV7) | -0.0506 | 0.198
BCKDHA_P12694_178_DYPLELFMAQCYGNISDLGK (UniProt P12694) | -0.0388 | -0.261
BCAS2_O75934_132_IENLELMSQHGCNAWK (UniProt O75934) | 0.126 | -0.0653
BAZ1A_Q9NRL2_764_QEQINCVTREPLTADEEEALK (UniProt Q9NRL2) | 0.0138 | -0.149
BCR_P11274_886_SFSLTSVELQMLTNSCVK (UniProt P11274) | -0.0235 | -0.0491
BAZ2A_Q9UIF9_888_DVPSLGVLQEGLLCQGDSLGEVQDLLVR (UniProt Q9UIF9) | -0.134 | 0.198

At a glance, part of the list above:
Target | probe-labelled cysteine peptide fold change (10 µM) | probe-labelled cysteine peptide fold change (50 µM)
BLM_P54132_704_SLCYQLPACVSPGVTVVISPLR (UniProt P54132) | -0.311 | 0.68
BORCS6_Q96GS4_67_TSSCGVVHRPER (UniProt Q96GS4) | 0.0369 | -0.256
